In this test the target is E47A/E48A double mutant of E. coli acyl carrier protein (E. coli) (UniProt P0A6A8). The test is described as follows: NMR titration.

Protein sequences, listed by entry. Tags and fused reporters are not part of them. Lines headed by an entry give the natural chain unless they say otherwise; changes in a name come on top.
UniProt P0A6A8, whole entry, looked up, stated change not applied: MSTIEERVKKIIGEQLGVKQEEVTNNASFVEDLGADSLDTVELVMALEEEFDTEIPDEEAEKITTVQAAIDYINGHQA

Results are given in words; binding and its absence hold for the method and conditions named. Some entries that bind do so weakly or less than the wild type.

The values below come from publication doi:10.1101/2025.01.28.635281 (bioRxiv, 2025).

B1: Bacillus subtilis Sfp (Surfactin synthetase activating enzyme, 4'-phosphopantetheinyl transferase) (enzyme, UniProt P39135 1-224)
chain: MKIYGIYMDRPLSQEENERFMSFISPEKREKCRRFYHKEDAHRTLLGDVLVRSVISRQYQLDKSDIRFSTQEYGKPCIPDLPDAHFNISHSGRWVICAFDSQPIGIDIEKTKPISLEIAKRFFSKTEYSDLLAKDKDEQTDYFYHLWSMKESFIKQEGKGLSLPLDSFSVRLHQDGQVSIELPDSHSPCYIKTYEVDPGYKMAVCAAHPDFPEDITMVSYEELL
In the case of B1, the binding result is reported as “binds”.
